# The list shows a part of the results. Further columns of the screen follow, without active or inactive calls. Compounds called inactive in the main read-out are mostly missing here. Potencies come from curve fits of mixed quality, noted in brackets.
# Test: qHTS Assay for Lipid Storage Modulators in Drosophila S3 Cells;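 as to cell number change: cells counted by Cell Tracker Red CMTPX staining in the red channel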
# Settings: BODIPY lipid droplet fluorescence, 18-24 h; for cell number change: measured here: cell count max response, cells fed with added oleic acid
# Summary of the method: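 Drosophila S3 cells got compounds at several concentrations plus oleic acid (400 uM solution). Laser-scanning cytometry with 488 nm excitation read lipid droplets at 500-530 nm and cells at 575-640 nm. Percent activity was relative to 20 uM Triacsin C.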
# [1] = measured here: lipid fluorescence (Fed channel) AC50, cells fed with added oleic acid
# [2] = measured here: cell number channel AC50, cells fed with added oleic acid
Structure (SMILES),cell number change [%],AC50 [1],AC50 [2]
CC(C)(OC(=O)c1ccc(F)cc1)c1cc2ccccc2c(=O)o1,6.92,"0.0058 µM [rising, full curve, poor fit]",
O=c1nc(-c2ccccc2)c2cc(Cl)ccc2[nH]1,0.358,,
CCNc1nc(NCC)n2c(SCC(=O)Nc3ccc(F)cc3[N+](=O)[O-])nnc2n1,26.8,"0.58 µM [falling, single point]",
CC(C)OC(=O)c1c(N)n(CCCN2CCOCC2)c2nc3ccccc3nc12,1.66,,
O=C(CSc1nc2ccccc2c(=O)n1Cc1ccco1)N1CCCCCC1,-42.4,,"16.4 µM [falling, single point]"
O=C/C(=C\Nc1ccc(Br)cc1)c1nc2ccccc2o1,3.7,"0.00517 µM [rising, full curve, poor fit]",
C=CCN(CC(O)c1cccc([N+](=O)[O-])c1)C(C)CCc1ccccc1 (stereo unspecified),-10.1,,
O=C(c1ccco1)[C@@H]1[C@@H]2C(=O)N(c3ccccc3)C(=O)[C@@H]2C2c3ccccc3C=CN21 (stereo partly specified),19,"2.06 µM [rising, full curve, poor fit]",
CC(C)Oc1cc2oc(=O)c3c(c2cc1Cl)CCC3,,"6.51 µM [falling, single point]",
CC(C)Oc1ccc2ccccc2c1C=O,-24.2,,
CCCCCc1c(C)nc(Nc2nc(C)c3cc(OC)ccc3n2)[nH]c1=O,28.5,"7.31 µM [rising, partial curve]",
O=C(COC(=O)c1ccc(Cl)nc1)Nc1ccc2c(c1)OCO2,-10.2,,"6.51 µM [falling, single point]"
CC(=O)NCCC(=O)Nc1sc2c(c1-c1nc3ccccc3[nH]1)CCCC2,15.8,"29.1 µM [rising, single point]",
C=C(C)COc1ccc2c(C)c(CC(=O)N3C[C@H]4C[C@@H](C3)c3cccc(=O)n3C4)c(=O)oc2c1C,-20.4,"0.82 µM [rising, full curve, poor fit]",
CCSc1ccccc1-c1nc(-c2ccncc2)no1,-35.7,"20.6 µM [falling, single point]","14.6 µM [falling, single point]"
CCOc1ccc(S(=O)(=O)Nc2cnc3ccccc3c2)cc1,11.3,"29.1 µM [falling, single point]",
O=C(CSc1nnc(CNC(=O)c2ccccc2F)o1)NC1CCCC1,5.1,,
CCOc1ccc(NC(=S)NNC(=O)c2ccc(Br)cc2)cc1,13.6,,"1.64 µM [rising, partial curve]"
Cc1cccc(/C(N)=N/OC(=O)CCC2CCCCC2)c1,-4.23,"6.51 µM [rising, single point]",
CS(=O)(=O)c1ccccc1C(=O)Nc1cccc(-c2nc3ccccc3o2)c1,,"7.31 µM [falling, partial curve]",
O=C1CSC(=O)N1CC(O)COc1ccc(Cl)cc1 (stereo unspecified),9.17,"0.092 µM [falling, single point]","0.58 µM [falling, single point]"

Structure (SMILES),cell number change [%],AC50 [1],AC50 [2]
S=c1[nH]nc(Cc2ccccc2)n1Cc1ccco1,70.6,,
CCOc1cc(NC(=O)c2ccco2)c(OCC)cc1NC(=O)CCc1ccc(OC)cc1,7.19,,
Cc1nn(Cc2c(F)c(F)c(F)c(F)c2F)c(C)c1NC(=O)c1c([N+](=O)[O-])c(C)nn1C,,"6.51 µM [rising, partial curve]","1.46 µM [rising, partial curve]"
Oc1ccccc1N1CCN(C(=S)NCCc2ccccc2)CC1,23.2,"25.9 µM [rising, single point]",
Clc1ccc(CSc2nnc(-c3ccc4c(c3)OCO4)o2)cc1,88.7,,"20.6 µM [rising, single point]"
COCCNC(=O)c1c(N)n(CCC2=CCCCC2)c2nc3ccccc3nc12,,"29.1 µM [falling, single point]","0.259 µM [rising, partial curve, poor fit]"
CN1C(=O)/C(=C/c2cc(N=Nc3ccccc3)ccc2O)SC1=S,-34.5,"3.66 µM [falling, full curve]","14.6 µM [falling, partial curve, poor fit]"
COc1cc(C(=O)Nc2ccccc2N2CCOCC2)ccc1OCc1c(C)noc1C,12,"2.06 µM [rising, full curve]",
CC(C)C[C@@H](CC#N)N1CCN(Cc2ccccc2)CCC1=O,23.3,"16.4 µM [rising, single point]",
CCN1C(=NCC(C)C)N[C@@H](CCc2ccccc2)[C@H](C(=O)NCC(C)C)[C@H]1C,29.4,"20.6 µM [falling, single point]",
Cc1ccc(C(=O)N2CCC(C(=O)Nc3cccc([N+](=O)[O-])c3)CC2)cc1,,"29.1 µM [falling, single point]",
COCCN(C(=O)COC(=O)Cc1cccc(OC)c1)c1c(N)n(CC(C)C)c(=O)[nH]c1=O,1.81,"32.6 µM [rising, single point]",
COc1ccc(C(=O)Nc2nccs2)cc1OC,21.2,"1.84 µM [rising, partial curve]",
COc1ccc(N2CCN(C(=O)CNC(=O)Cc3ccc(Cl)cc3)CC2)cc1,32.3,"5.17 µM [rising, partial curve]","0.00461 µM [rising, full curve, poor fit]"
CC1(C)CC(=O)C2=C(C1)OC(N)=C(C#N)C2C1C=CCCC1 (stereo unspecified),94.6,"16.4 µM [rising, partial curve]","16.4 µM [rising, partial curve]"
O=C(Cc1ccccc1)NC1CCSc2ccccc21 (stereo unspecified),-5.49,,
Cc1ccc2[nH]c3c(c2c1)CCCC3NCCO (stereo unspecified),15.5,"29.1 µM [falling, single point]",
Cc1cc(SCc2ccccc2)nc(=O)[nH]1,24.4,"29.1 µM [rising, single point]",
CC(C)(C)C(=O)CN1C(=O)C2(OCCO2)c2ccccc21,6.47,"0.326 µM [falling, single point]",
CN(Cc1ccccc1)C(=O)COc1cccnc1[N+](=O)[O-],21.8,"0.651 µM [rising, full curve]",
COc1ccc(OC)c(NC(=O)COC(=O)CCCN2C(=O)c3ccccc3C2=O)c1,116,,"32.6 µM [rising, partial curve, poor fit]"

# Looked up above:
# cell number change [%] with `COc1cc(C(=O)Nc2ccccc2N2CCOCC2)ccc1OCc1c(C)noc1C` reads 12
# cell number change [%] with `O=C(Cc1ccccc1)NC1CCSc2ccccc21` (stereo unspecified) reads -5.49
# AC50 [1] with `Cc1ccc(C(=O)N2CCC(C(=O)Nc3cccc([N+](=O)[O-])c3)CC2)cc1` reads 29.1 µM [falling, single point]

# The listing continues:

Structure (SMILES),cell number change [%],AC50 [1],AC50 [2]
C/C(=N/NC(=O)CNC(=O)c1ccccn1)c1ccccc1,-34.4,,"0.58 µM [falling, full curve]"
CCn1c(CNC(=O)COc2ccc(C(C)C)cc2)nnc1SCC(=O)Nc1ccc(F)cc1,10,"2.06 µM [falling, partial curve, poor fit]",
Cc1ccc(C2NNC(=O)C2NC(=O)c2ccccc2)cc1 (stereo unspecified),23.8,"1.3 µM [falling, full curve]",
NC(=O)CSc1nnc(-c2ccncc2)n1CCc1ccccc1,-15,"0.0517 µM [falling, full curve, poor fit]",
CC(Sc1ccc(Cl)cc1)C(=O)Nc1ccc(S(=O)(=O)N2CCOCC2)cc1 (stereo unspecified),-3.58,"29.1 µM [falling, single point]",
Clc1ccc(-c2c[n+]3c(n2-c2ccccc2)SCC3)cc1,,,"0.0731 µM [rising, full curve, poor fit]"
Cc1ccccc1CNC(=O)C(=O)NCC1OCCCN1S(=O)(=O)c1cccs1 (stereo unspecified),4.62,"23.1 µM [rising, single point]",
NS(=O)(=O)c1ccc(CCNC(=O)C(c2ccccc2)c2ccccc2)cc1,-2.86,"6.51 µM [rising, single point]",
O=c1cc(NCc2ccccc2)c2ccccc2o1,3.44,"4.11 µM [rising, full curve, poor fit]",
C[C@@]1([C@@H](NC(=O)c2cccs2)c2ccc(-c3ccccc3)cc2)C[C@H]1C1CCCCC1,22.6,"7.31 µM [rising, partial curve]",
CC(C)(CC(=O)O)CC(=O)NCc1c(Cl)cccc1Sc1ccc(Cl)cc1,19.3,"0.58 µM [falling, single point]","0.517 µM [falling, single point]"
COC(=O)CCc1ccc(O)cc1,7.68,"6.51 µM [rising, single point]",
Cc1ccc(/C=C/S(=O)(=O)N2CCC(C(=O)O)CC2)cc1,8.37,"2.59 µM [rising, partial curve, poor fit]",
CCn1cc(C(=O)NCc2ccc(Cl)cc2)c(=O)c2cc(S(=O)(=O)N(C)C)ccc21,268,,
CCCCn1c(N)c(N(CCOC)C(=O)c2sc3ccccc3c2Cl)c(=O)[nH]c1=O,-19.8,"1.46 µM [rising, partial curve]",
COc1cc(OC)c(OC)cc1CNC(=O)c1ccc(S(=O)(=O)N2CC(C)OC(C)C2)cc1 (stereo unspecified),-13.4,"20.6 µM [falling, single point]",
O=C(NCc1ccccc1)C(=O)Nc1nc(-c2ccccc2)cs1,14.2,"0.00461 µM [rising, full curve, poor fit]","0.00461 µM [rising, full curve, poor fit]"
O=C(COc1ccc(Br)cc1)NC1CC1,14.7,"3.66 µM [rising, single point]",
O=C(N/N=C/c1cn(-c2ccccc2)nc1-c1cccs1)c1ccc(Cl)cc1,7.29,"1.46 µM [rising, partial curve]",

# Reference: PubChem BioAssay AID2685 (National Center for Advancing Translational Sciences (NCATS), 2010)
